In patent US20110293648A1 (LUDWIG INSTITUTE FOR CANCER RESEARCH, published 2011):
Results are given in words; binding and its absence hold for the method and conditions named. Binding can be weak; no strength is given.

Molecular target: HLA-DRB3*0202 (human)
Test: not specified ('The methods described above')

| binding | Binder |
| --- | --- |
| binds | QMTFGRLQGISPKIM (also called p98-111 (as printed once); SSX-2 98-112) [SSX-2 peptide p98-112] |
| binds | FGRLQGISPKIMPKK [SSX-2 peptide p101-115] |
